Test results: patent EP0002426B1, “Antiperspirant” (priority 1977, dated 1979)

Tested on: adrenaline-induced local sweating
Assay: OPT-test of sweat response after intradermal adrenaline, epidermal application of local anesthetic emulsions on the forearm
Assay type: in vivo, volunteers
Conditions: total concentration of 10%, aqueous emulsion
Description: The anti perspiration effect of the present invention was determined in an experimental investigation of dermal analgesia and influence upon adrenaline-induced local sweating by epidermal application of different local anesthetic formulations.
12 healthy medical students took part in the study.
Pre-formed pads, consisting of cellulose fibres, 2 times 2 centimetres, were soaked by a standardized procedure in either an emulsion containing 5% lidocaine base + 5% prilocaine base, an emulsifying agent and water, 10% lidocaine base in the same vehicle, 10% prilocaine base in the same vehicle, or a placebo emulsion containing the emulsifying agent and water only. On one forearm of the volunteer the four different emulsions were applied under occlusive dressings consisting of an impervious tape, while on the other arm the four emulsions were applied under a non-occlusive dressing, using surgical tape (3M). A certain distance between the application areas was chosen in order to avoid any risk of interference between them. […]
Just under the apex of each test area triangle an intradermal wheal 0.1 ml adrenaline 1:10 000 was injected. […] The number of black-coloured sweat pores within the standardized diameter hole in the plastic rings was counted under a direct vision microscope.

With `CCN(CC)CC(=O)Nc1c(C)cccc1C` [L, Diethylaminoacet-2',6'-xylidide] the “sweat response inhibition, compared among the tested formulations” value was “less effective”.
